{
  "source": "paper PMC5434815",
  "about": "“The role of histidines in amyloid β fibril assembly” (Febs Letters, 2017)",
  "origin": "cited, not measured here",
  "conditions": "cited from earlier work",
  "data": [
    {"substance": "Aβ1–40 wt: wild‐type amyloid β 1–40, recombinant, obtained from AlexoTech (Umeå, Sweden) [reference compound]", "values": [
      {"measurement": "extracellular concentration in vivo", "value": "around 1 nM"}
    ]}
  ]
}
